The shares of active, inactive and inconclusive entries below differ from those in the screen. For part of these data: A potency beside an inconclusive call is a rough fit, not a confirmed value. For part of these data: “Side channel” marks fits to a control or component signal instead of the main read-out. Active and inactive are the calls of the source. Unless noted, calls come from the whole dose curve.
Assays:
[1] = Cell Viability - LYMP1-003 - Assay at 24 hr (AID 963; active = well fitted curve in the direction sought with a large enough effect; inconclusive = small, poorly fitted or top-dose-only effect, or another doubt; inactive = no such curve, though single readings can be large; an effect the other way counts as inactive or inconclusive;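 note: plate controls were DMSO only for no effect and tetraoctylammonium bromide positive control for full effect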); details: LYMP1-003 lymphoblastoid cell viability; at 92.2 µM (top of the series)
Method in brief: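 Concentration-response qHTS: ATP loss measured by CellTiter-Glo luminescence after 24 h compound exposure at 37 C. Cells were LYMP1-003 human lymphoblastoid, 2500 per well. AC50 derived via standard Hill equation modeling.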

The chains behind the UniProt entries cited, without tags or fusion partners. Where a name states a change or a piece, a line headed by the entry shows the natural chain unless it says otherwise.
UniProt P10275: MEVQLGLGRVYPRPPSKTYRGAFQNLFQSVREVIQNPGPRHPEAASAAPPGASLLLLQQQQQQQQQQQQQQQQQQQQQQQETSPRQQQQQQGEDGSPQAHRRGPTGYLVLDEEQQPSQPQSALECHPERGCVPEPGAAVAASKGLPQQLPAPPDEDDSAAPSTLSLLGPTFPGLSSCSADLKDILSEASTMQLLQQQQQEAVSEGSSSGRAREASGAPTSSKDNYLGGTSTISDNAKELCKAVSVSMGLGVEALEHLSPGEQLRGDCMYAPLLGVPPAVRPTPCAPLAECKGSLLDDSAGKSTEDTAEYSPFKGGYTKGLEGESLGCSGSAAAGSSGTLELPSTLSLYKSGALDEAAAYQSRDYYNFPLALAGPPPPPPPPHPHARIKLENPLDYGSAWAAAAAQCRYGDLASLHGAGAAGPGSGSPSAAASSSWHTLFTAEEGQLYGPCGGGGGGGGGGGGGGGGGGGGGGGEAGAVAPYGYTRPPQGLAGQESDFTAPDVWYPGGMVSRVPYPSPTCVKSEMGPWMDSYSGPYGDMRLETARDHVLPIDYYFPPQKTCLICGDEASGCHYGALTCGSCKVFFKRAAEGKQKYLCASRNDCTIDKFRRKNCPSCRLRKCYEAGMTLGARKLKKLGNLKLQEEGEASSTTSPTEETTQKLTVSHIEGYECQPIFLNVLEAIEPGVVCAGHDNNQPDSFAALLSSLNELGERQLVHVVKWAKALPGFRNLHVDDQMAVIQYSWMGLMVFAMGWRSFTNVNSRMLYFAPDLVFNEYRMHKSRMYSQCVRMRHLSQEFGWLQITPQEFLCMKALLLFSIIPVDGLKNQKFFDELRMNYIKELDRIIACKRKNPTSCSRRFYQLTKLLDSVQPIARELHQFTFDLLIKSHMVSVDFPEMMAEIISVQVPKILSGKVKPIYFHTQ
UniProt Q03181: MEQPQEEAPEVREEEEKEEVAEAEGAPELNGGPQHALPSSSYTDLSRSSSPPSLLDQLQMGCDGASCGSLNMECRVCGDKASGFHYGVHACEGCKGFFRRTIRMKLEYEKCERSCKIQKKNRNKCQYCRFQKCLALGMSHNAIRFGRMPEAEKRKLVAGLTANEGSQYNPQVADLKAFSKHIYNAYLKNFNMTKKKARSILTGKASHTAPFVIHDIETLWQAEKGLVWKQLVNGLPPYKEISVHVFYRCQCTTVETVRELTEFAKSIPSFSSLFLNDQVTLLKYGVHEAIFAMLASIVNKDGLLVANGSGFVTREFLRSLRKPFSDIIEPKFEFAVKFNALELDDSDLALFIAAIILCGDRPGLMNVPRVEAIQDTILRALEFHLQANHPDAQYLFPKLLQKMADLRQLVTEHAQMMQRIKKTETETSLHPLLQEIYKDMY
UniProt P19793: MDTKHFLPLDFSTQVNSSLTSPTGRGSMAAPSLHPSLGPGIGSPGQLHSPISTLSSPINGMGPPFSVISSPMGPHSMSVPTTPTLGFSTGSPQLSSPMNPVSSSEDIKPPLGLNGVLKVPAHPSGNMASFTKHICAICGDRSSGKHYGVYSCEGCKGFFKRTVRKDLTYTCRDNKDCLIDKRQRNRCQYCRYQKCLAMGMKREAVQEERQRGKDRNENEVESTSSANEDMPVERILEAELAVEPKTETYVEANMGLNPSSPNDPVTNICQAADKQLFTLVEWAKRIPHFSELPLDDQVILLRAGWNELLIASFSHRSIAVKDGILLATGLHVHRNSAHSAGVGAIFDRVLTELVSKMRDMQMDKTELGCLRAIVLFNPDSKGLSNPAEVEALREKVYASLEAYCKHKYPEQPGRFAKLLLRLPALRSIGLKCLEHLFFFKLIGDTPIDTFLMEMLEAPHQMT
UniProt P10828: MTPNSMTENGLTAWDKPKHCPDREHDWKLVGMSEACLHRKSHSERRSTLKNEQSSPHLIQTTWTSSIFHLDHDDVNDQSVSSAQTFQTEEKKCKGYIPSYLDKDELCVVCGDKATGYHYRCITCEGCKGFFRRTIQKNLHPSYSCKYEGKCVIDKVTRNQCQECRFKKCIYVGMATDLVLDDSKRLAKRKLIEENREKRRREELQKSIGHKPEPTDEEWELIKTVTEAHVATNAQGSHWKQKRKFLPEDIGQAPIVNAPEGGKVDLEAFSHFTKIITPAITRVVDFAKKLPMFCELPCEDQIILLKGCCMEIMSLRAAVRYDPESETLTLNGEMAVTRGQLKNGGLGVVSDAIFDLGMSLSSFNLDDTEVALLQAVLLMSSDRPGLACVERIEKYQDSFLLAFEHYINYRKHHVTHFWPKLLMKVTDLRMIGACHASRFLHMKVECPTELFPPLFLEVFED
UniProt P11473: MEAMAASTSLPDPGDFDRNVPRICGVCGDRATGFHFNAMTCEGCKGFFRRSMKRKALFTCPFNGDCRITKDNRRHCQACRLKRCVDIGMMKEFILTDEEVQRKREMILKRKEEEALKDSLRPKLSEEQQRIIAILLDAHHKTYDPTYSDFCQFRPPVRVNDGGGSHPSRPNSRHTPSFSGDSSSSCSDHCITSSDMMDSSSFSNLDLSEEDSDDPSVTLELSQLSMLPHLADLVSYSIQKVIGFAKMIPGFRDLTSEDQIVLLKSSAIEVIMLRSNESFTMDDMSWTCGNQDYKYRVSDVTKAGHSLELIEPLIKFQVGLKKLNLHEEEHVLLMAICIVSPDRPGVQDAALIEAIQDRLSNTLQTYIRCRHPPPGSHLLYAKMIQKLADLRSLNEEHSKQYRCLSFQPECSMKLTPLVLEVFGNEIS

[2] = Cell Viability - LYMP2-009 (AID 968; active = well fitted curve in the direction sought with a large enough effect; inconclusive = small, poorly fitted or top-dose-only effect, or another doubt; inactive = no such curve, though single readings can be large; an effect the other way counts as inactive or inconclusive;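 note: 0% = DMSO alone and the full-kill end = tetraoctylammonium bromide at 92 µM; nearly all actives have a fitted effect of over 55% in size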); details: LYMP2-009 lymphoblastoid cell viability; activity change, negative = viability loss: at 92.2 µM (top of the series)
[3] = biological target: Androgen receptor (Homo sapiens) (UniProt P10275); assay: qHTS assay for small molecule antagonists of androgen receptor signaling (AID 588516; active = well fitted curve in the direction sought with a large enough effect in the signal ratio, with a control signal flat, not every such curve was filed as active; inconclusive = small, poorly fitted or top-dose-only effect, or effect the other way, or a change in a side signal; inactive = no such curve, though single readings can be large or run the other way; the % refers to the signal ratio; note: % is set by controls: 0 for no effect and ±100 for the full control effect); details: AR-UAS-bla HEK293, beta-lactamase ratio, antagonist mode, 16 h; activity change, negative = inhibition: at 76.8 µM (top of the series)
Method in brief: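 Antagonist mode: inhibition of R1881-stimulated (10 nM final) bla reporter in GeneBLAzer AR HEK 293 cells, 16 h at 37C, compounds titrated. IC50 and efficacy from Hill-equation fits of 405/460–530 nm FRET ratios.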

[4] = biological target: Peroxisome proliferator-activated receptor delta (Homo sapiens) (UniProt Q03181); assay: qHTS assay for small molecule antagonists of peroxisome proliferator-activated receptor delta signaling (AID 588535; active = well fitted inhibition curve with a large enough effect in the signal ratio, with a control signal flat, not every such curve was filed as active; inconclusive = small, poorly fitted or top-dose-only effect, or effect the other way, or a change in a side signal; inactive = no such curve, though single readings can be large or run the other way; the % refers to the signal ratio); details: HEK293T PPARd-UAS-bla, beta-lactamase FRET ratio, 18 h; activity change, negative = inhibition: at 76.7 µM (top of the series) unless noted
Method in brief: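 Fluorescence from CCF4-loaded GeneBLAzer PPAR-delta-UAS-bla HEK293T cells (2 hrs RT loading) quantified reporter inhibition after an 18 hr, 37 C compound exposure across a titration.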

[5] = biological target: Peroxisome proliferator-activated receptor gamma (Homo sapiens) (UniProt P37231); assay: qHTS assay for small molecule antagonists of peroxisome proliferator-activated receptor gamma signaling (AID 588537; active = well fitted inhibition curve with a large enough effect in the signal ratio, with a control signal flat, not every such curve was filed as active; inconclusive = small, poorly fitted or top-dose-only effect, or effect the other way, or a change in a side signal; the % refers to the signal ratio;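 note: reporter cells co-stimulated with 50 nM rosiglitazone agonist during compound treatment; % of control where 0% means no effect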); details: HEK293 PPARg-UAS-bla, beta-lactamase ratio, antagonist mode; activity, negative = inhibition: at 76.8 µM (top of the series) unless noted
Method in brief: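 Fluorescence at 460 and 530 nm (405 nm excitation) reported beta-lactamase cleavage of CCF4 after 2 h room-temperature loading. HEK293 reporter cells in 1% charcoal/dextran-treated FBS had received compound and rosiglitazone for 16 h.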

[6] = biological target: Retinoic acid receptor RXR-alpha (Homo sapiens) (UniProt P19793); assay: qHTS assay for small molecule agonists of retinoid X receptor alpha signaling (AID 588544); details: HEK293T RXRa-UAS-bla, beta-lactamase reporter, 18 h; activation: at 76.7 µM (top of the series); note: potency is the fitted concentration of half-maximal effect;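 for activation: 0% = DMSO basal wells and 100% = reference agonist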
[7] = qHTS assay for small molecule agonists of the antioxidant response element (ARE) signaling pathway (AID 651741; active = well fitted activation curve with a large enough effect in the signal ratio; inconclusive = small, poorly fitted or top-dose-only effect, or effect the other way, or a change in a side signal; the % refers to the signal ratio; note: potency is the fitted concentration of half-maximal effect; for activation: % of control where 0% means no effect); details: HepG2 ARE-bla reporter, beta-lactamase FRET ratio, 16 h; activation: at 96 µM (top of the series) unless noted
Method in brief: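 Stably integrated ARE-beta-lactamase reporter HepG2 cells; 16 h compound incubation, 37 C; LiveBLAzer FRET substrate 2 h at room temperature; fluorescence intensity.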

[8] = biological target: Retinoic acid receptor RXR-alpha (Homo sapiens) (UniProt P19793); assay: qHTS assay for small molecule antagonists of retinoid X receptor alpha signaling (AID 588546; active = well fitted inhibition curve with a large enough effect in the signal ratio, with a control signal flat, not every such curve was filed as active; inconclusive = small, poorly fitted or top-dose-only effect, or effect the other way, or a change in a side signal; inactive = no such curve, though single readings can be large or run the other way; the % refers to the signal ratio;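 note: cells stimulated with 9-cis-retinoic acid as agonist; % is set by controls: 0 for no effect and ±100 for the full control effect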); details: HEK293T RXRa-UAS-bla, beta-lactamase ratio, antagonist mode
Method in brief: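 Beta-lactamase reporter inhibition, read as CCF4 fluorescence ratio (ex 405, em 460/530 nm) after 2 h at RT. HEK293T UAS-bla cells, 2500/well, were stimulated with 9-cis-RA at 500 or 100 nM final alongside test compound for 18 h at 37 C.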

[9] = qHTS assay for small molecule activators of the nuclear factor-kappa B (NF-kB) signaling pathway (AID 651749; active = well fitted activation curve with a large enough effect in the signal ratio; inconclusive = small, poorly fitted or top-dose-only effect, or a change in a side signal; the % refers to the signal ratio; note: potency is the fitted concentration of half-maximal effect); details: NF-kB-bla ME-180 cells, beta-lactamase FRET ratio, 16 h; activation: hits give high values
Method in brief: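 In this qHTS format, compounds acting as activators increase NF-kB-driven beta-lactamase in ME-180 cells, measured as disrupted FRET after 16 hr exposure at 37C and 5% CO2.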

[10] = Cell Viability - LYMP2-015 (AID 971; active = well fitted curve in the direction sought with a large enough effect; inconclusive = small, poorly fitted or top-dose-only effect, or another doubt; inactive = no such curve, though single readings can be large; an effect the other way counts as inactive or inconclusive;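 note: 0% = DMSO only and full effect = 92 µM tetraoctylammonium bromide; nearly all actives have a fitted effect of over 55% in size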)
Method in brief: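 Cytotoxicity readout: decrease in intracellular ATP (CellTiter-Glo luminescence) in 2500 LYMP2-015 lymphoblastoid cells/well after 24 h compound exposure at 37 C. Concentration-response data fitted with the standard Hill equation to give AC50.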

[11] = biological target: Androgen receptor (Homo sapiens) (UniProt P10275); assay: qHTS assay for small molecule agonists of androgen receptor signaling (AID 588515; active = well fitted curve in the direction sought with a large enough effect in the signal ratio, with a control signal flat; inconclusive = small, poorly fitted or top-dose-only effect, or effect the other way, or a change in a side signal; inactive = no such curve, though single readings can be large or run the other way; the % refers to the signal ratio; note: % is set by controls: 0 for no effect and ±100 for the full control effect); details: AR-UAS-bla HEK293, beta-lactamase ratio, agonist 16 h; activation: hits give high values
Method in brief: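 Stimulation of an AR-responsive β-lactamase reporter in GripTite HEK293 cells was measured after 16 h compound exposure at 37 °C, via CCF4 fluorescence after 2 h RT. EC50 from Hill fits, normalized to R1881 at 30 nM.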

[12] = qHTS assay to identify small molecules that stimulate interleukin-8 (IL-8) secretion (AID 651758; active = well fitted activation curve with a large enough effect in the signal ratio; inconclusive = small, poorly fitted or top-dose-only effect, or effect the other way, or a change in a side signal; the % refers to the signal ratio; note: 0% is about no effect); details: HTRF ratio (665/615); activation: at 92.2 µM (top of the series)
Method in brief: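 Compounds are added to THP-1 cells (2000 per well) and left 16 hrs at 37 C. A labeled anti-IL-8 antibody pair is then added, and IL-8 secretion is measured by time-resolved FRET after 1-3 hrs at room temperature.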

[13] = Cell Viability - LYMP2-011 (AID 969; active = well fitted curve in the direction sought with a large enough effect; inconclusive = small, poorly fitted or top-dose-only effect, or another doubt; inactive = no such curve, though single readings can be large; an effect the other way counts as inactive or inconclusive;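 note: 0% = DMSO only and full inhibition = 92 µM tetraoctylammonium bromide; nearly all actives have a fitted effect of over 60% in size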)
Method in brief: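 Cytotoxicity qHTS with ATP content as read-out: lymphoblastoid cells (2500/well) exposed to compound for 24 h at 37 C, then luciferase luminescence measured. Concentration-response data fitted with the standard Hill equation to give AC50.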

[14] = biological target: Peroxisome proliferator-activated receptor delta (Homo sapiens) (UniProt Q03181); assay: qHTS assay for small molecule agonists of peroxisome proliferator-activated receptor delta signaling (AID 588534); details: HEK293T PPARdelta-UAS-bla, beta-lactamase ratio, 18 h; activation: at 76.7 µM (top of the series) unless noted; note: potency is the fitted concentration of half-maximal effect
Method in brief: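 Agonist-mode beta-lactamase reporter readout (CCF4 dye, 2 h at RT) after 18 h at 37 °C exposure to a titration; Hill-equation fitting gave EC50 and maximal response.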

[15] = biological target: Thyroid hormone receptor beta (Homo sapiens) (UniProt P10828); assay: qHTS assay for small molecule agonists of thyroid hormone receptor beta signaling (AID 588545); details: TR-UAS-bla GripTite HEK 293, beta-lactamase ratio, agonist mode, 18 h; activation: at 76.7 µM, percent of T3 response, DMSO as zero
Method in brief: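 Agonist activity was read as beta-lactamase CCF4 fluorescence (405 ex, 460/530 em), scaled between DMSO (0%) and 10 nM T3 (100%), then Hill-fitted for EC50 and efficacy. HEK 293 TR-UAS-bla cells in 2% charcoal/dextran FBS medium were exposed 18 h at 37 C.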

[16] = MultiTox-Fluor Cytotoxicity Assay - LYMP1-002 - Dead Cells (AID 960; active = well fitted curve in the direction sought with a large enough effect; inconclusive = small, poorly fitted or top-dose-only effect, or another doubt; inactive = no such curve, though single readings can be large; an effect the other way counts as inactive or inconclusive; note: nearly all actives have a fitted effect of over 60% in size; note: potency is the fitted concentration of half-maximal effect;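 for cytotoxicity (dead cells): 0% = DMSO and 100% = tetraoctylammonium bromide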); details: LYMP1-002 lymphoblastoid cells, dead-cell protease fluorescence; cytotoxicity (dead cells): at 46.1 µM (top of the series)
Method in brief: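 Dead-cell fluorescence (Ex/Em 485/520) after 16 h compound exposure at 37 C of LYMP1-002 lymphoblastoid cells in complete medium; AC50 by Hill equation, with data scaled between DMSO and 15 uM tetraoctylammonium bromide.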

[17] = Cell Viability - LYMP2-012 (AID 982; active = well fitted curve in the direction sought with a large enough effect; inconclusive = small, poorly fitted or top-dose-only effect, or another doubt; inactive = no such curve, though single readings can be large; an effect the other way counts as inactive or inconclusive;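 note: cellular ATP by luciferase luminescence where a drop means cytotoxicity; cells exposed to compound for one day before reading; 0% = DMSO only and full loss = 92 µM tetraoctylammonium bromide; nearly all actives have a fitted effect of over 55% in size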); details: LYMP2-012 lymphoblastoid cell viability qHTS; activity change, negative = cytotoxicity: at 92.2 µM (top of the series)
[18] = biological target: Thyroid hormone receptor beta (Homo sapiens) (UniProt P10828); assay: qHTS assay for small molecule antagonists of thyroid hormone receptor beta signaling (AID 588547; active = well fitted inhibition curve with a large enough effect in the signal ratio, with a control signal flat, not every such curve was filed as active; inconclusive = small, poorly fitted or top-dose-only effect, or effect the other way, or a change in a side signal; the % refers to the signal ratio; note: potency is the fitted concentration of half-maximal effect); details: TR-UAS-bla HEK293, beta-lactamase ratio, antagonist mode, 18 h
Method in brief: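 TR-UAS-bla GripTite HEK293 cells in 2% charcoal/dextran FBS medium; compounds 0.59 nM to 92 uM with T3 at 0.4nM final, 18 h at 37 C. Beta-lactamase read by CCF4 fluorescence (460/530 nm); Hill fits gave IC50 and efficacy.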

[19] = biological target: Bile acid receptor (Homo sapiens) (UniProt Q96RI1); assay: qHTS assay for small molecule antagonists of farnesoid X receptor signaling (AID 588526); details: HEK293T FXR-UAS-bla, beta-lactamase ratio, antagonist mode; activity change, negative = inhibition: at 76.7 µM (top of the series); note: potency is the fitted concentration of half-maximal effect
Method in brief: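 Antagonist mode: titrated compounds tested against chenodeoxycholic acid stimulation (normalized to 50 uM CDCA and DMSO) in GeneBLAzer HEK293T cells for 16 h. Beta-lactamase read by CCF4 fluorescence; IC50 from Hill fits.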

[20] = biological target: Vitamin D3 receptor (Homo sapiens) (UniProt P11473); assay: qHTS assay for small molecule agonists of vitamin D receptor signaling (AID 588543); details: HEK293T VDR-UAS-bla, beta-lactamase ratio, 16 h; activation: at 76.8 µM (top of the series);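 note: 0% = DMSO basal and 100% = reference agonist control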
Method in brief: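 Agonist-mode beta-lactamase reporter: HEK293T VDR-UAS-bla cells in charcoal-stripped 2% FBS, compound series 16 h 37 C, CCF4 2 h RT. EC50 from Hill fit, scaled against DMSO and 50 nM calcitriol control.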

[21] = biological target: Glucocorticoid receptor (Homo sapiens) (UniProt P04150); assay: qHTS assay for small molecule agonists of glucocorticoid receptor signaling (AID 588532; active = well fitted curve in the direction sought with a large enough effect in the signal ratio, with a control signal flat; inconclusive = small, poorly fitted or top-dose-only effect, or a change in a side signal; inactive = no such curve, though single readings can be large or run the other way; the % refers to the signal ratio;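 note: 100% = dexamethasone at 0.1 µM and 0% = DMSO only wells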); details: HeLa MMTV-bla, beta-lactamase ratio, agonist, 18 h; activation: hits give high values, percent of dexamethasone control, DMSO zero
Method in brief: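 MMTV-bla HeLa beta-lactamase reporter cells in 1% charcoal/dextran FBS medium, compounds up to 92 uM for 18 h at 37 C, CCF4 readout; normalized to 0.1 uM dexamethasone (100%), EC50 and efficacy from Hill fits.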

[22] = biological target: Glucocorticoid receptor (Homo sapiens) (UniProt P04150); assay: qHTS assay for small molecule antagonists of glucocorticoid receptor signaling (AID 588533; active = well fitted inhibition curve with a large enough effect in the signal ratio, with a control signal flat, not every such curve was filed as active; inconclusive = small, poorly fitted or top-dose-only effect, or effect the other way, or a change in a side signal; the % refers to the signal ratio;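 note: cells stimulated with 2 nM dexamethasone as agonist; % is set by controls: 0 for no effect and ±100 for the full control effect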); details: HeLa MMTV-bla, GRE beta-lactamase ratio, antagonist mode, 18 h; activity change, negative = inhibition: at 76.8 µM (top of the series)
[23] = qHTS assay for small molecule activators of the p53 signaling pathway (AID 651743; active = well fitted activation curve with a large enough effect in the signal ratio, not every such curve was filed as active; inconclusive = small, poorly fitted or top-dose-only effect, or a change in a side signal; the % refers to the signal ratio; note: potency is the fitted concentration of half-maximal effect); details: HCT-116 p53RE-bla, beta-lactamase FRET ratio, 16 h; activation: hits give high values
Method in brief: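 Following 16 hours of compound exposure at 37 C, HCT-116 cells bearing the p53RE-bla reporter were loaded with LiveBLAzer B/G FRET substrate for 2 hours at room temperature and fluorescence intensity was recorded.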

[24] = qHTS assay for small molecule agonists of the antioxidant response element (ARE) signaling pathway measured by Nrf2-dependant transcriptional activity (AID 720636; active = well fitted curve in the direction sought with a large enough effect in the repeat runs; inconclusive = weak or mixed curves; inactive = no such curve, though single readings can be large; an effect the other way counts as inactive or inconclusive; note: potency is the fitted concentration of half-maximal effect)
Method in brief: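 Reporter gene assay, HepG2 ARE-luc: 16 hr compound, 37 C, 5% CO2; read-out luciferase luminescence.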

## c1ccc2c(c1)ccc1ncccc12
[1]
  viability change, negative = cytotoxic: inactive: -4.61%
[2]
  Potency: inactive
[3]
  activity change, negative = inhibition: inconclusive: -16.6%
[4]
  Potency: inactive
[5]
  activity, negative = inhibition: inconclusive: -2.14%
[6]
  Potency: inactive
[7]
  Potency: inactive

## O=S(c1ccc(Cl)cc1)c1cc(Cl)c(Cl)cc1Cl (stereo unspecified)
[3]
  activity change, negative = inhibition: inconclusive: -42.3%
[5]
  activity, negative = inhibition: inconclusive: -33.2%
[6]
  Potency: inconclusive: 39.8 µM [side channel, rising, partial curve, poor fit]
[8]
  max response: inconclusive: -37%
[9]
  Potency: active: 7.94 µM

## Cc1ccc(N)cc1[N+](=O)[O-]
[10]
  Potency: inactive
[11]
  activation: inconclusive: 9.48%
[4]
  Potency: inactive
[5]
  Potency: inactive
[7]
  activation: inconclusive: 15.4%
[12]
  activation: inconclusive: -28.7%

## Nc1cc(S(=O)(=O)O)ccc1O
[13]
  Potency: inactive
[11]
  activation: inactive: 14.7%
[14]
  Potency: inconclusive: 50.1 µM [activator, partial curve, poor fit]
[5]
  activity, negative = inhibition: inconclusive: 2.91%
[15]
  activation: inactive: -17.4%
[7]
  Potency: inactive
[12]
  Potency: inactive

## CCOc1cc(OCC)c(C(C)=O)cc1OCC
[16]
  Potency: inconclusive: 15.8 µM [cytotoxic, partial curve, poor fit]
[17]
  Potency: inactive
[11]
  activation: inactive: -14.7%
[4]
  activity change, negative = inhibition: inconclusive: 29.2%
[5]
  Potency: inactive
[6]
  Potency: inactive
[18]
  activity change % (negative = inhibition): inactive: -7.72%
[7]
  activation: inconclusive: 7.12%
[12]
  Potency: inactive

## CCCC(Cl)CCCC(Cl)CCC(Cl)CCC(Cl)CCC(Cl)CCCC(Cl)CCC (stereo unspecified)
[16]
  Potency: inactive
[3]
  Potency: inactive
[19]
  Potency: inconclusive: 50.1 µM [cytotoxic, side channel, partial curve, poor fit]
[5]
  activity, negative = inhibition: inconclusive: -11.3%
[20]
  Potency: inactive
[7]
  Potency: inconclusive: 0.335 µM [cytotoxic, side channel, full curve, poor fit]
[12]
  activation: inconclusive: -2.88%

## CCCCCCCCCCCCCCN
[11]
  activation: inactive: 2.33%
[18]
  Potency: inconclusive: 31.6 µM [side channel, falling, partial curve, poor fit]

## Cc1ccc(N=Nc2c(O)ccc3ccccc23)c(C)c1
[3]
  Potency: inactive
[21]
  activation: inactive: -16.9%
[22]
  activity change, negative = inhibition: inconclusive: 16.5%
[6]
  activation: inconclusive: -21.3%
[18]
  activity change % (negative = inhibition): inactive: 9.11%
[7]
  Potency: active: 7.7 µM
[23]
  Potency: inconclusive: 1.12 µM [side channel, falling, full curve, poor fit]
[24]
  Potency: active: 10.9 µM

— PubChem BioAssay (NCATS)
